{"source": "patent US7560259B2", "about": "“Glutathione S-transferase sequence variants” (Mayo Foundation for Medical Education and Research, priority 2005, dated 2009)", "molecules": {"B1": {"name": "Val41Ile: GSTO2 allozyme having an isoleucine at amino acid residue 41 in place of valine (protein)", "chain": "MSGDATRTLGKGSQPPGPVPEGLIRIYSMRFCPYSHRTRLILKAKDIRHEVVNINLRNKPEWYYTKHPFGHIPVLETSQCQLIYESVIACEYLDDAYPGRKLFPYDPYERARQKMLLELFCKVPHLTKECLVALRCGRECTNLKAALRQEFSNLEEILEYQNTTFFGGTCISMIDYLLWPWFERLDVYGILDCVSHTPALRLWISAMKWDPTVCALLMDKSIFQGFLNLYFQNNPNAFDFGLC"}, "B2": {"name": "Asn142Asp/Leu158Ile: double variant GSTO2 allozyme, Asn142Asp and Leu158Ile (protein)", "chain": "B1 chain with I41V, N142D, L158I"}, "B3": {"name": "Leu158Ile: GSTO2 allozyme having an isoleucine at amino acid 158 in place of a leucine residue (protein)", "chain": "B1 chain with I41V, L158I"}, "B4": {"name": "WT: reference (wild type) human GSTO2 polypeptide, SEQ ID NO:9 (protein)", "chain": "B1 chain with I41V", "modifications": "Homo sapien"}, "B5": {"name": "Cys130Tyr: GSTO2 allozyme having a tyrosine at amino acid residue 130 in place of a cysteine residue (protein)", "chain": "B1 chain with I41V, C130Y"}, "B6": {"name": "Asn142Asp: GSTO2 allozyme having an aspartic acid at amino acid residue 142 in place of an asparagine residue (protein)", "chain": "B1 chain with I41V, N142D"}}, "note": "Substitutions are numbered along the chain they refer to."}
{"tested_on": "COS-1 cells", "experiment": "Quantitative Western blot of GSTO2 immunoreactive protein after transient expression in COS-1 cells", "assay_type": "cell-based", "conditions": "COS-1 cells transiently transfected, corrected for beta-galactosidase; WT = 100", "source_text": "(§1) Recombinant GSTO2 Expression Constructs and Allozyme Expression: A WT GSTO2 cDNA open reading frame (ORF) sequence was amplified from a pooled human liver cDNA library (Clontech, Mountain View, Calif.). Expression constructs for the nonsynonymous cSNPs observed during the resequencing studies were generated by site-directed mutagenesis using “circular PCR.” Sequences of the site-directed mutagenesis primers are listed in Table 1. Site-directed mutagenesis amplification reactions contained 1 U of Pfu Turbo DNA polymerase (Stratagene, La Jolla, Calif.) in a final volume of 25 μl, 10 μmol of primers, 0.24 mM dNTPs, and 2.5 μl of 10×PCR buffer. The sequences of expression constructs were confirmed by sequencing in both directions after cloning into the eukaryotic expression vector pCR3.1 (Invitrogen, Carlsbad, Calif.).\n(§2) WT and variant GSTO2 expression constructs were transfected into COS-1 cells, together with pSV-β-galactosidase DNA (Promega) to make it possible to use β-galactosidase activity to correct for transfection efficiency. Transfections were performed with Lipofectamine 2000 (Invitrogen), and the cells were cultured for 48 hours in Dulbecco's modified Eagles medium (DMEM; Bio Whittaker, Walkersville, Md.) with 10% fetal bovine serum (Clontech). Cells were homogenized with a Polytron homogenizer (Brinkmann Instruments, Westbury, N.Y.). The homogenates were centrifuged at 100,000×g for 1 hour; and supernatant preparations were stored at −80° C.\n(§3) Western Blot Analysis: Rabbit polyclonal antibodies were generated to GSTO2 (Cocalico Biologicals, Reamstown, Pa.) using a polypeptide that corresponded to amino acids 10 to 30, with an additional cysteine residue at the amino terminus. This synthetic polypeptide was conjugated to keyhole limpet hemocyanin prior to immunization of rabbits. For quantitative Western blot analysis, cytosol preparations of COS-1 cells transfected with the expression constructs were loaded on a 12% polyacrylamide gel on the basis of β-galactosidase activity to correct for possible variation in transfection efficiency. After SDS-PAGE, the proteins were transferred to a nitrocellulose membrane that was probed with rabbit antiserum to GSTO2, diluted 1:2000 with “blocking buffer.” Goat anti-rabbit horseradish peroxidase, diluted 1:20,000, was used as the secondary antibody. Bound antibody was detected with the ECL Western blotting system (Amersham Pharmacia Biotech, Piscataway, N.J.). The level of immunoreactive protein was quantitated using IP Gel Lab (Biosystemetica, Plymouth, UK).\n(§4) As an initial step in the study of the possible functional implications of nonsynonymous cSNPs in the GSTO2 gene, expression constructs were created for all variant allozymes, and those constructs were used to transfect COS-1 cells. This mammalian cell line was transfected to ensure the presence of mammalian post-translational modification and the mammalian machinery for protein degradation. The GSTO2 expression constructs were cotransfected with β-galactosidase to make it possible to correct for variations in transfection efficiency. […] The Val41Ile and Asn142Asp allozymes were expressed at approximately 80% of the level of the WT allozyme (Table 10). The GSTO2 antibody cross-reacted with a protein in the COS-1 cells with a molecular mass slightly higher than that for recombinant GSTO2."}
{"molecule": "B1", "GSTO2 immunoreactive protein levels": "82.8 ± 1.6"}
{"molecule": "B2", "GSTO2 immunoreactive protein levels": "15.2 ± 2.5"}
{"molecule": "B3", "GSTO2 immunoreactive protein levels": "17.3 ± 1.7"}
{"molecule": "B4", "GSTO2 immunoreactive protein levels": "100 ± 2.3"}
{"molecule": "B5", "GSTO2 immunoreactive protein levels": "49.4 ± 2.8"}
{"molecule": "B6", "GSTO2 immunoreactive protein levels": "76.1 ± 3.0"}
{"tested_on": "COS-1 cells", "experiment": "Quantitative Western blot of GSTO2 immunoreactive protein after transient expression in COS-1 cells", "assay_type": "cell-based", "conditions": "transient expression in COS-1 cells", "source_text": "as §1, §2, §3, §4"}
{"molecule": "B1", "expression level relative to the level of the WT allozyme": "approximately 80%"}
{"molecule": "B2", "allozyme level after transient expression (in words)": "strikingly reduced"}
{"molecule": "B3", "allozyme level after transient expression (in words)": "strikingly reduced"}
{"molecule": "B5", "allozyme level after transient expression (in words)": "strikingly reduced"}
{"molecule": "B6", "expression level relative to the level of the WT allozyme": "approximately 80%"}
